Data published in paper PMC9440026.
Results are given in words; binding and its absence hold for the method and conditions named. In cells and extracts the contact can be indirect. Some entries that bind do so weakly or less than the wild type.

Amino acid sequences for entries named in this document (tags omitted).
UniProt P60766: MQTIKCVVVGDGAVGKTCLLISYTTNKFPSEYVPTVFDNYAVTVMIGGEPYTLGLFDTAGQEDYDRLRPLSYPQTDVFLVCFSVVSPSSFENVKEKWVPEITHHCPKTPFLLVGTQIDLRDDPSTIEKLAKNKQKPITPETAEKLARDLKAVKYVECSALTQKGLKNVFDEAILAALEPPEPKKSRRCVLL
UniProt Q8BTI9: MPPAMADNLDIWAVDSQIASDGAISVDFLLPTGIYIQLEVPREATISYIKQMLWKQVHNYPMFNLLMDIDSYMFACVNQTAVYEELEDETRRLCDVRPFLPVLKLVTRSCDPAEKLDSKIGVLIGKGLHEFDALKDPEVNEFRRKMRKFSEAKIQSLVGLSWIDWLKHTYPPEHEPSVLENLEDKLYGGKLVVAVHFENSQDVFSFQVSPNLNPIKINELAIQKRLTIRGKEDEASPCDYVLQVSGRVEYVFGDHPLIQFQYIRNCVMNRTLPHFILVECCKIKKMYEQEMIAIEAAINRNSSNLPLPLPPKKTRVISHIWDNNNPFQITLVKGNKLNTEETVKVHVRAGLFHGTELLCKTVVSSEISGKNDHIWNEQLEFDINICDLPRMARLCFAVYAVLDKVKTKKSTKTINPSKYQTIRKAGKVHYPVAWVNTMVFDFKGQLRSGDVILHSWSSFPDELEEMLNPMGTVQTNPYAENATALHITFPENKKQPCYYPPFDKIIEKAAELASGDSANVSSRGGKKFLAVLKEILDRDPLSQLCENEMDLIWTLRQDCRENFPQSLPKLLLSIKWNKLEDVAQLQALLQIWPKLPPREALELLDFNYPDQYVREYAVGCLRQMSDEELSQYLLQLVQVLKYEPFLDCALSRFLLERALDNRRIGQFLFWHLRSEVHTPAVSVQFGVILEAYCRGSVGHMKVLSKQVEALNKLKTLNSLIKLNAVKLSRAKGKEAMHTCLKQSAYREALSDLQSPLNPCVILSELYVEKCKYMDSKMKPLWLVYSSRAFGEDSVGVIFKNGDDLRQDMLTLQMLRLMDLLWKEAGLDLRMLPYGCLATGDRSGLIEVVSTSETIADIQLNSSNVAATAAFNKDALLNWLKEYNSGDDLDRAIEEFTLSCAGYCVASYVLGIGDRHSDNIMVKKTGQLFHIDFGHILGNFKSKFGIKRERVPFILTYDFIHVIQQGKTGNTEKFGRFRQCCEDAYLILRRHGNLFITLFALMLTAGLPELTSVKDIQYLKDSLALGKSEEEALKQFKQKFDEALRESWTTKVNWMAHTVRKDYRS

Target: CDC42 (mouse (endogenous in oviductal organoids)) (UniProt P60766)
Test: co-IP; 500 μg whole-cell protein from differentiated oviductal organoids, 2 μg anti-CDC42 antibody overnight at 4 °C, Dynabeads Protein A 3 h at 4 °C, three washes; western blot for CDC42 and p110β; rabbit IgG as control immunoprecipitation

In the case of “PI3 Kinase p110β (from UniProt Q8BTI9 1-1064)”, the binding is reported as “binds”.
